Assay results from PubChem BioAssay AID493014 (National Center for Advancing Translational Sciences (NCATS), 2011).
Hit rate of the full screen: of about 340,000 compounds, about 170 (0.05%) were called active. The shares of active, inactive and inconclusive entries below differ from those in the screen. The call rests on the fitted dose curve; in most records, active means well fitted inhibition curve with a large enough effect in the signal ratio, with a control signal flat (not every such curve was filed as active); inconclusive means small, poorly fitted or top-dose-only effect, or effect the other way, or a change in a side signal; inactive means flat fitted curve, though single readings scatter; the % refers to the signal ratio. Where the call is inconclusive, the potency comes from a doubtful curve fit.

Test: qHTS Assay to Find Inhibitors of Chronic Active B-Cell Receptor Signaling;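 on activity change, negative = inhibition: plate controls were basal doxycycline-induced cells for no effect and cells given 10 µM MG132 for full effect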
Conditions: ABC-DLBCL IkBa-CBG/CBR reporter, luminescence ratio (green luciferase fused to IkBa over red control in TMD8 lymphoma cells), 4 h; activity change, negative = inhibition: at 46.1 µM (top of the series)
Outline: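 TMD8 ABC-DLBCL cells carrying doxycycline-inducible green luciferase fused to IkappaBalpha plus unfused red luciferase were exposed to compounds (up to 46 uM) for 4 hrs at 37C. Activity came from the overlap-corrected green/red luminescence ratio.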
Potency means the concentration at half of the fitted maximal effect.

Structure (SMILES)	activity change, negative = inhibition	Potency
O=S(=O)(Cc1ccccc1)Nc1cccc(F)c1	inactive	–
CSc1ccccc1NC(=O)CN(C)S(=O)(=O)c1ccc(F)cc1	–	inconclusive: 6.51 µM [rising, single point]
COc1ccccc1Nc1ncccc1[N+](=O)[O-]	–	inconclusive: 11.2 µM [falling, partial curve]
COc1ccc(CNC(=O)c2ccc3c(c2)N(C)CCS3)cc1	–	inconclusive: 17.8 µM [falling, partial curve]
O=C(Nc1ccc2nc3n(c(=O)c2c1)CCCCC3)c1ccccc1Cl	–	inconclusive: 12.6 µM [falling, single point]
CCOC(=O)c1sc(=NC(=O)c2ccc(C)cc2)n(C)c1C	–	inconclusive: 1.12 µM [falling, partial curve, poor fit]
CCCN(CCC)CCNC(=O)C1CC(=O)N(c2ccc(OC)cc2)C1c1ccc(OC)cc1 (stereo not given)	inconclusive: 2.18%	–
CCN(CCC(=O)O)c1ccccc1	–	inconclusive: 32.6 µM [falling, partial curve, poor fit]
O=C(N/N=C/c1ccccc1OC(F)F)c1cc(-c2ccncc2)nc2ccccc12	–	inconclusive: 10 µM [falling, partial curve]
O=C(CCNS(=O)(=O)/C=C/c1ccccc1)NCCc1c[nH]c2ccccc12	–	inconclusive: 35.5 µM [falling, single point]
NNc1nc2ccccc2c(=O)n1Cc1ccccc1	–	inconclusive: 31.6 µM [falling, single point]
CCc1nc(SCc2nc3ccccc3[nH]2)c2oc3ccccc3c2n1	inconclusive: -3.4%	–
COc1ccc(C(c2nnnn2CC2CCCO2)N2CCC(C(N)=O)CC2)cc1 (stereo not given)	inactive	–
O=C(Nc1ccc2ccccc2c1)c1cn(-c2ccccc2)nc1-c1cccs1	inactive	–
O=C1CCN(S(=O)(=O)c2ccccc2)CCN1CCOCc1ccc(C(F)(F)F)cc1	inconclusive: -2.13%	–
Cc1cc(SCC(=O)c2cccs2)nc2ccccc12	–	inconclusive: 16.4 µM [falling, single point]
O=C(/C=C/Nc1ccccc1Oc1ccccc1)c1ccco1	inconclusive: 0.226%	–
Cc1ccccc1-n1c(C)cc(/C=N/NC(=O)c2ccncc2)c1C	inconclusive: -2.23%	–
O=C(N/N=C/C(Br)=C\c1ccccc1)c1n[nH]c2c1CCC2	–	inconclusive: 0.13 µM [falling, full curve, poor fit]
CCOc1ccc(C(=O)NC(C)(C)CC)cc1	inconclusive: 7.85%	–
COc1cc(N)c(Cl)cc1C(=O)OCC(=O)NCc1cccs1	inconclusive: 2.29%	–
CN(Cc1ccccn1)C(=O)CC1C(=O)NCCN1Cc1ccc(F)cc1Cl (stereo not given)	inactive	–
CC(C)CN(C(=O)COC(=O)C(C)N1C(=O)c2ccccc2C1=O)c1c(N)n(Cc2ccccc2)c(=O)[nH]c1=O (stereo not given)	inconclusive: 2.5%	–
COc1ccc(-c2noc(CNS(=O)(=O)c3ccc(NC(C)=O)cc3)n2)cc1	inactive	–
COc1ccc(-c2c(C#Cc3ccc(N(C)C)cc3)c3ccccc3n2C)cc1	inconclusive: 8.51%	–
CN(C)S(=O)(=O)n1cc(/C=C(\NC(=O)c2ccccc2Cl)C(=O)N2CCCC2)c2ccccc21	inconclusive: -11.6%	–
COc1ccc2cc(C(=O)NCc3ccccc3CN3CCCC3)ccc2c1	inactive	–

Structure (SMILES)	activity change, negative = inhibition	Potency
CSc1ncccc1C(=O)Nc1nc2c(C)cccc2s1	inconclusive: 0.0686%	–
O=C(Cc1ccccc1)Nc1cccc([N+](=O)[O-])c1	inconclusive: 4.77%	–
CCOc1ccccc1/C=C/c1onc(C)c1S(=O)(=O)N1CCC(C(=O)N2CCCCC2)CC1	inconclusive: 3.34%	–
COC(=O)c1sc(NC(=O)c2ccncc2)nc1C	–	inconclusive: 22.4 µM [falling, single point]
C/C(=N\NC(=O)C1(C)NC(C)(C)Cc2ccccc21)c1ccccc1 (stereo not given)	inconclusive: -9.49%	–
CCN1CCN(CCCCOc2ccccc2F)CC1	inconclusive: -2.7%	–
CCCCOc1ccc(-c2nc(=S)[nH][nH]2)cc1	–	inconclusive: 10.3 µM [falling, partial curve, poor fit]
CCOC(=O)c1[nH]c2ccc(F)cc2c1NC(=O)C(C)N1CCc2cc(OC)c(OC)cc2C1 (stereo not given)	inconclusive: 4.58%	–
COC(=O)c1ccc(Oc2nc(SC)nc(N(C)C)n2)cc1	inconclusive: -6.05%	–
O=S(=O)(Nc1nc2ccccc2nc1N1CCc2ccccc2C1)c1ccc(Br)cc1	–	inconclusive: 14.6 µM [falling, partial curve]
O=C(/C=C/NNC(=O)c1ccccc1)c1ccccc1	–	inconclusive: 5.17 µM [falling, partial curve]
O=[N+]([O-])c1ccc(NC(=S)NCc2ccncc2)cc1	inconclusive: -2.71%	–
O=C(COc1cccnc1[N+](=O)[O-])Nc1ncc(Cl)cc1Cl	inconclusive: 11.1%	–
O=C1CC(c2ccco2)Cc2c1cnn2-c1nc2ccccc2s1 (stereo not given)	inconclusive: 20.6%	–
Oc1ccc(/C=C/c2nc(-c3ccccc3O)n(-c3ccccc3)n2)cc1	–	inconclusive: 12.6 µM [falling, partial curve, poor fit]
Cc1ccc(C2=NN(CCC(=O)NCCc3cccc(C)c3)C(=O)CC2)cc1	–	inconclusive: 25.1 µM [falling, single point]
CN(CC(=O)Nc1ccccc1Sc1ccccc1)Cc1nc2ccccc2c(=O)[nH]1	inconclusive: -1.34%	–
Cn1c(SCc2ccccc2[N+](=O)[O-])nnc1-c1cccnc1	inactive	–
O=C(CSc1nnc(-c2c[nH]c3ccccc23)o1)c1ccc(-c2ccccc2)cc1	inconclusive: 8.96%	–
Cc1nnc(SCC(=O)NCc2cccs2)n1-c1ccccc1	inconclusive: 2.77%	–
O=C(c1ccc(N2CCOCC2)c([N+](=O)[O-])c1)N1CCN(c2ccccc2F)CC1	inactive	–
c1c2c(cc3sc(N4CCOCC4)nc13)OCCO2	–	inconclusive: 8.2 µM [falling, partial curve, poor fit]
CCC(CC)c1nnc(NC(=O)CC(C)c2ccccc2)s1 (stereo not given)	inactive	–
COc1ccc(-c2csc(NC(=O)Nc3ccccc3)n2)cc1	inconclusive: 1.81%	–
CC(C)c1ccc(NC(=S)Nc2cccc3ccccc23)cc1	inactive	–
CCOc1ccc(Br)cc1S(=O)(=O)Nc1ccc(C(=O)OC(C)C(=O)N(C)c2ccccc2)cc1 (stereo not given)	inconclusive: 16%	–
CCOC(=O)C1=C(C)NC(C)=C(C(=O)OCC)C1	–	inconclusive: 8.91 µM [falling, partial curve, poor fit]

Random excerpt: five entries already listed, in no set order.
Structure (SMILES)	activity change, negative = inhibition	Potency
c1c2c(cc3sc(N4CCOCC4)nc13)OCCO2	–	inconclusive: 8.2 µM [falling, partial curve, poor fit]
Cc1nnc(SCC(=O)NCc2cccs2)n1-c1ccccc1	inconclusive: 2.77%	–
O=S(=O)(Nc1nc2ccccc2nc1N1CCc2ccccc2C1)c1ccc(Br)cc1	–	inconclusive: 14.6 µM [falling, partial curve]
O=C(COc1cccnc1[N+](=O)[O-])Nc1ncc(Cl)cc1Cl	inconclusive: 11.1%	–
COC(=O)c1ccc(Oc2nc(SC)nc(N(C)C)n2)cc1	inconclusive: -6.05%	–

Continuation:

Structure (SMILES)	activity change, negative = inhibition	Potency
NC(=O)C1CCN(C2=C(NS(=O)(=O)c3ccccc3)C(=O)c3ccccc3C2=O)CC1	–	inconclusive: 14.1 µM [rising, single point]
CCOC(=O)/C(C#N)=C1/C=Nc2ccccc2N1	–	inconclusive: 18.4 µM [falling, partial curve]
NNc1nc2c(-c3ccc(Cl)cc3)nnn2c2ccccc12	inconclusive: 402%	–
CCCN1CCC(N2CCN(c3ccc([N+](=O)[O-])cc3)CC2)CC1	inactive	–
COc1ccc(C(=O)OCC(=O)Nc2sccc2C(N)=O)cc1OC	inconclusive: -19.7%	–
O=C(Cn1ncc(Cl)c(Cl)c1=O)c1ccc(Cl)cc1	inconclusive: 21.5%	–
CC(=O)Oc1ccc2c(=O)c(N3C(=O)c4ccccc4C3=O)c(C)oc2c1	inconclusive: 10.7%	–
COc1ccc(-c2c3c(=O)n(C)c(=O)n(C)c3cn2N2CCOCC2)cc1	inconclusive: -20.4%	–
CCC1CCCCN1S(=O)(=O)c1ccc(NC(=O)c2snnc2C)cc1 (stereo not given)	inactive	–
O=C(CCc1nnc(CCc2ccccc2)o1)NC(c1cccnc1)C(F)(F)F (stereo not given)	inactive	–
O=c1cc(CSc2nnnn2-c2ccccc2)nc2scc(-c3ccccc3)n12	inconclusive: 4.87%	–
CC1(C)CC(=O)N(CC(=O)O)c2ccccc2S1	inconclusive: -7.7%	–
NC(c1ccccc1)c1ccncc1 (stereo not given)	inactive	–
O=C(COC(=O)CNC(=O)c1ccc(Cl)cc1Cl)NNC(=O)c1ccccc1	inactive	–
COc1ccc(OC)c(CCNC(=O)CSc2ccsc2[N+](=O)[O-])c1	inconclusive: -0.17%	–
O=C(COC(=O)C1CC2CCCC(C1)C2=O)Nc1ccccc1 (stereo not given)	inconclusive: 1.08%	–
O=C(CCOc1ccccc1)Nc1ccccc1	–	inconclusive: 11.2 µM [falling, partial curve]
COc1cccc(C(=O)NCc2nnc(SCC(=O)Nc3nccs3)n2-c2ccccc2)c1	inconclusive: 5.31%	–
O=[N+]([O-])c1cc([N+](=O)[O-])c2nonc2c1Nc1ccccc1O	–	inconclusive: 31.6 µM [rising, single point]
Cc1ccccc1-c1nc(CN2CCC(C(=O)NCCCN3CCCC(C)C3)CC2)c(C)o1 (stereo not given)	–	inconclusive: 35.5 µM [falling, single point]
CNC(=O)CSc1nnc(NC(=O)C2CC(=O)N(c3ccccc3OC)C2)s1 (stereo not given)	inconclusive: -19.5%	–
c1ccc2[nH]c(CCCCc3nc4ccccc4[nH]3)nc2c1	inconclusive: -9.16%	–
O=C(CN1C(=O)c2ccccc2S1(=O)=O)c1ccc2c(c1)OCCCO2	–	inconclusive: 15.8 µM [falling, single point]
O=C1C2ON(c3ccccc3)C(c3cccnc3)C2C(=O)N1c1ccccc1 (stereo not given)	inconclusive: 16.1%	–
COc1ccc(C)cc1NC(=O)CCNC(=O)Cn1cnc2ccccc2c1=O	inconclusive: 3.67%	–
Nc1ccc2oc(-c3ccccc3Cl)nc2c1	–	inconclusive: 8.2 µM [falling, partial curve]
